# From publication PMC10488256
# No constants are given. Whether binding was seen depends on the method and setting. Binding seen in cells or lysates may run through a third protein. Some results given as binding are weak or reduced against the parent protein; the word gives no strength. Where a sequence is shown, tags or fusion partners need not be part of it.
# B1: zinc finger DHHC-type containing 13 (ZDHHC13) protein with HA tag (enzyme, UniProt Q8IUH4 1-622)
# chain: MEGPGLGSQCRNHSHGPHPPGFGRYGICAHENKELANAREALPLIEDSSNCDIVKATQYGIFERCKELVEAGYDVRQPDKENVSLLHWAAINNRLDLVKFYISKGAVVDQLGGDLNSTPLHWAIRQGHLPMVILLLQHGADPTLIDGEGFSSIHLAVLFQHMPIIAYLISKGQSVNMTDVNGQTPLMLSAHKVIGPEPTGFLLKFNPSLNVVDKIHQNTPLHWAVAAGNVNAVDKLLEAGSSLDIQNVKGETPLDMALQNKNQLIIHMLKTEAKMRANQKFRLWRWLQKCELFLLLMLSVITMWAIGYILDFNSDSWLLKGCLLVTLFFLTSLFPRFLVGYKNLVYLPTAFLLSSVFWIFMTWFILFFPDLAGAPFYFSFIFSIVAFLYFFYKTWATDPGFTKASEEEKKVNIITLAETGSLDFRTFCTSCLIRKPLRSLHCHVCNCCVARYDQHCLWTGRCIGFGNHHYYIFFLFFLSMVCGWIIYGSFIYLSSHCATTFKEDGLWTYLNQIVACSPWVLYILMLATFHFSWSTFLLLNQLFQIAFLGLTSHERISLQKQSKHMKQTLSLRKTPYNLGFMQNLADFFQCGCFGLVKPCVVDWTSQYTMVFHPAREKVLRSV
# Molecular target: epidermal growth factor receptor (EGFR), Flag-tagged (UniProt P00533)
# Assay: co-IP; 293FT cells co-expressing the two tagged proteins (methods: HEK293 cells transiently transfected); lysed in IP-RIPA buffer on ice; lysates incubated with antibody-carrying beads for 4 h; washed; Western blot
binder,measurement,value
B1,binding,binds
